Values from PubChem BioAssay AID1159584 (Peter MacCallum Cancer Centre, 2016)
Assay: 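Knock-downs that harm CDH1-null cells more than parental MCF10A cells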 (primary screen). System: human MCF10A breast epithelial cells, parental and CDH1-null. Reagents: siRNA against human genes. Measured: 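Cell viability by CellTiter-Glo ATP luminescence, each line scaled to the mean of mock wells across plates, then CDH1-null over parental ratio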. Direction: CDH1-null / parental viability ratio: higher = CDH1-null cells survive relatively better than parental; CDH1-null viability vs mock: higher = more viable CDH1-null cells; parental viability vs mock: higher = more viable parental cells.
In all, the deposit lists about 18,000 reagents; below is an unselected part. Not stated in the record: the amount of reagent, the time to read-out.

| gene symbol | CDH1-null / parental viability ratio | CDH1-null viability vs mock (fraction of mock) | parental viability vs mock (fraction of mock) |
| --- | --- | --- | --- |
| SCAP (GeneID 22937) | 0.96 | 0.54 | 0.56 |
| GORASP1 (GeneID 64689) | 1.15 | 0.76 | 0.66 |
| SLC25A34 (GeneID 284723) | 1.19 | 0.96 | 0.81 |
| AGTR1 (GeneID 185) | 0.84 | 0.92 | 1.1 |
| SKIC2 (GeneID 6499) | 1.06 | 0.93 | 0.88 |
| PTTG1 (GeneID 9232) | 0.84 | 0.63 | 0.75 |
| HPN (GeneID 3249) | 1.03 | 0.7 | 0.68 |
| FURIN (GeneID 5045) | 0.94 | 0.68 | 0.72 |
| KCNT2 (GeneID 343450) | 1.13 | 0.89 | 0.79 |
| RANBP17 (GeneID 64901) | 1.18 | 1.2 | 1.02 |
| FBXW2 (GeneID 26190) | 0.95 | 0.8 | 0.84 |
| TAP2 (GeneID 6891) | 0.97 | 0.89 | 0.92 |
| H4C9 (GeneID 8294) | 1.25 | 0.86 | 0.69 |
| SLC47A2 (GeneID 146802) | 1.21 | 0.64 | 0.53 |
| ATP5MC2 (GeneID 517) | 0.85 | 0.85 | 1 |
| GMDS (GeneID 2762) | 0.84 | 0.59 | 0.7 |
| H2AC12 (GeneID 85235) | 0.69 | 0.62 | 0.9 |
| SFN (GeneID 2810) | 1.26 | 1.01 | 0.8 |
| WDR74 (GeneID 54663) | 1 | 0.66 | 0.66 |
| ULK2 (GeneID 9706) | 1.16 | 0.86 | 0.74 |
| COL11A2 (GeneID 1302) | 1.03 | 0.71 | 0.69 |
| OR1E1 (GeneID 8387) | 1 | 0.58 | 0.58 |
| EHD4 (GeneID 30844) | 1.05 | 0.92 | 0.88 |
| FAM50A (GeneID 9130) | 1 | 0.74 | 0.74 |
| SARM1 (GeneID 23098) | 0.85 | 0.35 | 0.41 |
| SNORC (GeneID 389084) | 1.5 | 1.23 | 0.82 |
| CDY1 (GeneID 9085) | 1.2 | 0.72 | 0.6 |
| CEND1 (GeneID 51286) | 1.1 | 0.9 | 0.82 |
| FOXL1 (GeneID 2300) | 0.85 | 0.78 | 0.92 |
| ZNF771 (GeneID 51333) | 1.35 | 0.65 | 0.48 |
| EYA4 (GeneID 2070) | 1.28 | 0.82 | 0.64 |
| C11orf58 (GeneID 10944) | 1.04 | 1.2 | 1.15 |
| TBX5 (GeneID 6910) | 0.94 | 0.73 | 0.78 |
| CACNG1 (GeneID 786) | 1.09 | 0.89 | 0.82 |
| PEX39 (GeneID 441150) | 1.38 | 1.21 | 0.88 |
| OR2L3 (GeneID 391192) | 0.89 | 0.48 | 0.54 |
| MSANTD3 (GeneID 91283) | 0.76 | 0.75 | 0.99 |
| NRBP1 (GeneID 29959) | 0.78 | 0.74 | 0.95 |
| DHRS2 (GeneID 10202) | 1.02 | 0.82 | 0.8 |
| AADACL2 (GeneID 344752) | 1.02 | 0.97 | 0.95 |
| COQ8B (GeneID 79934) | 0.64 | 0.46 | 0.72 |
| PLCB1 (GeneID 23236) | 1 | 1.02 | 1.02 |
| ENGASE (GeneID 64772) | 0.76 | 0.53 | 0.7 |
| GHR (GeneID 2690) | 1 | 0.93 | 0.93 |
| REPS2 (GeneID 9185) | 1.12 | 0.46 | 0.41 |
| BHMT2 (GeneID 23743) | 0.85 | 0.85 | 1 |
| ATP11B (GeneID 23200) | 1.02 | 1.02 | 1 |
| DCN (GeneID 1634) | 0.94 | 0.83 | 0.88 |
| HOXB3 (GeneID 3213) | 0.87 | 0.73 | 0.84 |
| PINX1 (GeneID 54984) | 0.84 | 0.66 | 0.79 |
| NCKAP1L (GeneID 3071) | 0.89 | 0.78 | 0.88 |
| TENM2 (GeneID 57451) | 0.93 | 0.84 | 0.9 |
| CBLIF (GeneID 2694) | 1.16 | 1.09 | 0.94 |
| BBS12 (GeneID 166379) | 1.06 | 1.02 | 0.96 |
| ACBD3 (GeneID 64746) | 0.88 | 0.84 | 0.96 |
| ATP8A1 (GeneID 10396) | 1.18 | 0.98 | 0.83 |
| KIR3DL2 (GeneID 3812) | 1.16 | 0.88 | 0.76 |
| RAMAC (GeneID 83640) | 1 | 0.8 | 0.8 |
| SLC19A3 (GeneID 80704) | 0.95 | 1.2 | 1.26 |
| SKA2 (GeneID 348235) | 1.15 | 1.29 | 1.12 |
| PRAMEF2 (GeneID 65122) | 1.01 | 0.92 | 0.91 |
| OTULIN (GeneID 90268) | 1.01 | 0.68 | 0.67 |
| SGO2 (GeneID 151246) | 0.93 | 0.75 | 0.81 |
| TAAR9 (GeneID 134860) | 1.67 | 0.92 | 0.55 |
| PPM1A (GeneID 5494) | 1.31 | 0.81 | 0.62 |
| DEFB114 (GeneID 245928) | 1.03 | 0.7 | 0.68 |
| PRDM10 (GeneID 56980) | 0.89 | 0.62 | 0.7 |
| NELFB (GeneID 25920) | 1.13 | 0.68 | 0.6 |

Entries above whose target name begins with G or g:
| gene symbol | CDH1-null / parental viability ratio | CDH1-null viability vs mock (fraction of mock) | parental viability vs mock (fraction of mock) |
| --- | --- | --- | --- |
| GORASP1 (GeneID 64689) | 1.15 | 0.76 | 0.66 |
| GMDS (GeneID 2762) | 0.84 | 0.59 | 0.7 |
| GHR (GeneID 2690) | 1 | 0.93 | 0.93 |
